PubChem BioAssay AID504793 | Drosophila RNAi Screening Center | 2011

- Assay: 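Whole-genome screen for parts of the DNA damage checkpoint at G2/M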 (primary screen)
- System: Drosophila S2R+ cells
- Reagents: long dsRNA against Drosophila genes, about 0.25 µg dsRNA per well
- Time to read-out: 4 days of dsRNA, then 4 hours of drug before read-out
- Treatment: doxorubicin 0.5 µM for 4 hours to cause double-strand breaks, in cells also given a low, harmless dose of dsRNA against nbs to sensitise the assay
- Read-out: 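Mitotic index as the number of phospho-histone H3-positive cells in each well following doxorubicin, given as raw counts without normalisation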
- Direction: mitotic cells: higher = more cells in mitosis, weaker G2 arrest
- Call rule: 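a call needs confirmation in secondary tests, with other dsRNAs and a check of mitotic timing without damage, not just a high primary count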
- Calls: active = confirmed in follow-up tests; inactive = not confirmed
In all, the deposit lists about 23,000 reagents; this is a random part of those that have a named target and a result. In the full data, 62 (0.27%) were called active. 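Calls come from follow-up tests whose scores are not deposited, so confirmed genes may have low counts here; counts are not normalised per plate.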 The raw values are shown without normalisation. Names joined by + are all predicted targets of the reagent.

gene	dsRNA	mitotic cells, replicate 1	mitotic cells, replicate 2	outcome
CG15554 (GeneID 43680)	DRSC15092	10		inactive
CG5776 (GeneID 34680)	DRSC02891	6		inactive
rdgB (GeneID 32340)	DRSC20365	7		inactive
rdgB (GeneID 32340)	DRSC27840	7		inactive
Gr93a (GeneID 42568)	DRSC14593	17		inactive
COX7AL (GeneID 40995)	DRSC15313	2		inactive
COX7AL (GeneID 40995)	DRSC25198	7		inactive
Scox (GeneID 33711)	DRSC03117	8		inactive
Scox (GeneID 33711)	DRSC26366	3		inactive
INPP5E (GeneID 39404)	DRSC09723	4		inactive
CG11980 (GeneID 41078)	DRSC14456	4		inactive
CG8004 (GeneID 40178)	DRSC10947	6		inactive
CG8004 (GeneID 40178)	DRSC26615	3		inactive
CG2100 (GeneID 40707)	DRSC12303	6		inactive
Ulp1 (GeneID 32910)	DRSC19339	3		inactive
Tep4 (GeneID 35248)	DRSC03453	5		inactive
uzip (GeneID 38002)	DRSC04722	7		inactive
uzip (GeneID 38002)	DRSC30045	13		inactive
Syn2 (GeneID 36848)	DRSC06902	5		inactive
CG12674 (GeneID 33384)	DRSC00348	2		inactive
CG10479 (GeneID 38674)	DRSC23395	8		inactive
CG14110 (GeneID 39500)	DRSC10113	9		inactive
deltaTry + CG30031 + CG30025 + 1 more	DRSC27531	4		inactive
CG7276 (GeneID 39668)	DRSC10797	3		inactive
alpha-Est8 (GeneID 40899)	DRSC12620	6		inactive
Dronc (GeneID 39173)	DRSC11231	16		inactive
CG14892 (GeneID 42016)	DRSC15014	8		inactive
Trs20 (GeneID 39769)	DRSC10489	5		inactive
eIF2Bbeta (GeneID 31256)	DRSC18465	10		inactive
eIF2Bbeta (GeneID 31256)	DRSC28495	3		inactive
RunxA (GeneID 4379817)	DRSC20498	20		inactive
RunxA (GeneID 4379817)	DRSC20524	8		inactive
RunxA (GeneID 4379817)	DRSC21915	11		inactive
RunxA (GeneID 4379817)	DRSC25225	7		inactive
RunxA (GeneID 4379817)	DRSC27250	4		inactive
COX6B (GeneID 32989)	DRSC19590	7		inactive
COX6B (GeneID 32989)	DRSC27409	3		inactive
AP-2mu (GeneID 42642)	DRSC14090	7		inactive
AP-2mu (GeneID 42642)	DRSC28264	3		inactive
CG11906 (GeneID 37209)	DRSC06096	10		inactive
CG14221 (GeneID 32961)	DRSC19578	16		inactive
Gpdh1 (GeneID 33824)	DRSC03336	10		inactive
Gpdh1 (GeneID 33824)	DRSC21666	10		inactive
CG1575 (GeneID 31731)	DRSC18069	6		inactive
CG1575 (GeneID 31731)	DRSC27030	2		inactive
CG10737 (GeneID 37202)	DRSC05999	11		inactive
CG10737 (GeneID 37202)	DRSC26112	9		inactive
Dcr-1 (GeneID 42693)	DRSC15646	5		inactive
Dcr-1 (GeneID 42693)	DRSC27421	12		inactive
LpR2 (GeneID 43105)	DRSC13726	6		inactive
LpR2 (GeneID 43105)	DRSC13728	10		inactive
LpR2 (GeneID 43105)	DRSC15655	5		inactive
LpR2 (GeneID 43105)	DRSC25588	6		inactive
Scm (GeneID 41168)	DRSC16853	2		inactive
Tsp66E (GeneID 39017)	DRSC09683	7		inactive
CG8326 (GeneID 32738)	DRSC20103	6		inactive
CG8326 (GeneID 32738)	DRSC28368	4		inactive
tsr (GeneID 37841)	DRSC04718	10		inactive
CG6432 (GeneID 42901)	DRSC16039	9		inactive
Prosalpha1R + Prosalpha1	DRSC07515	82		inactive
Prosalpha1R + Prosalpha1	DRSC29087	106		inactive
CG42663 (GeneID 36403)	DRSC06158	8		inactive
CG42663 (GeneID 36403)	DRSC06404	9	5	inactive
CG42663 (GeneID 36403)	DRSC23788	6		inactive
Fer3HCH (GeneID 32260)	DRSC19892	17		inactive
Fer3HCH (GeneID 32260)	DRSC26911	6		inactive
Etl1 (GeneID 34311)	DRSC02911	2		inactive
shakB (GeneID 33062)	DRSC20585	7		inactive
shakB (GeneID 33062)	DRSC22817	13		inactive
shakB (GeneID 33062)	DRSC26262	6		inactive
TORIP (GeneID 40158)	DRSC10104	1		inactive
CG31189 (GeneID 42487)	DRSC16198	8		inactive
mRpL36 (GeneID 59151)	DRSC10337	2		inactive
CG1387 (GeneID 31770)	DRSC17904	4		inactive
sni (GeneID 31761)	DRSC17770	5		inactive
sni (GeneID 31761)	DRSC25897	3		inactive
Orp8 (GeneID 42412)	DRSC15110	13		inactive
Orp8 (GeneID 42412)	DRSC15712	5		inactive
Orp8 (GeneID 42412)	DRSC28849	5		inactive
CG1840 (GeneID 32150)	DRSC19806	4		inactive
CG1840 (GeneID 32150)	DRSC25112	8		inactive
CG14339 (GeneID 33286)	DRSC00369	2		inactive
CG14339 (GeneID 33286)	DRSC26560	7		inactive
Ald2 (GeneID 43189)	DRSC15799	19		inactive
Ald2 (GeneID 43189)	DRSC25164	3		inactive
CARPB (GeneID 31915)	DRSC18437	7		inactive
CARPB (GeneID 31915)	DRSC18438	15		inactive

Next part; the last 3 above are carried over.
gene	dsRNA	mitotic cells, replicate 1	mitotic cells, replicate 2	outcome
Ald2 (GeneID 43189)	DRSC25164	3		inactive
CARPB (GeneID 31915)	DRSC18437	7		inactive
CARPB (GeneID 31915)	DRSC18438	15		inactive
CG17049 (retired record) (GeneID 36483)	DRSC06650	8		inactive
Spn28Dc (GeneID 34091)	DRSC03029	3		inactive
CG32706 + CG6999	DRSC18412	14		inactive
CG32706 + CG6999	DRSC23954	8		inactive
CG5254 (GeneID 31020)	DRSC18611	17		inactive
mthl3 + mthl4	DRSC25990	4		inactive
Cyt-b5 (GeneID 35688)	DRSC07392	4		inactive
beta4GalT7 (GeneID 42991)	DRSC14385	12		inactive
l(3)neo43 (GeneID 41851)	DRSC14988	6		inactive
CG14933 + CG42486	DRSC02415	3		inactive
Cht9 (GeneID 37392)	DRSC04079	4		inactive
Cht9 (GeneID 37392)	DRSC24781	11		inactive
Rcd2 (GeneID 40283)	DRSC11756	10		inactive
ppk21 (GeneID 43485)	DRSC14466	14		inactive
CG7530 (GeneID 41784)	DRSC16255	9		inactive
CG7530 (GeneID 41784)	DRSC25476	9		inactive
Dref (GeneID 34328)	DRSC03319	3		inactive
pb (GeneID 40826)	DRSC12409	13		inactive
pb (GeneID 40826)	DRSC12629	5		inactive
pb (GeneID 40826)	DRSC25059	8		inactive
CG34221 (GeneID 5740574)	DRSC06150	6		inactive
CG34046 (retired record) (GeneID 3885653)	DRSC14075	3		inactive
CG34046 (retired record) (GeneID 3885653)	DRSC30016	4		inactive
ema (GeneID 41992)	DRSC14536	6		inactive
CG6503 (GeneID 50079)	DRSC16056	4		inactive
CG6503 (GeneID 50079)	DRSC29619	7		inactive
Cpr30B (GeneID 34270)	DRSC02728	10		inactive
Cpr30B (GeneID 34270)	DRSC25204	2		inactive
yip7 (GeneID 38680)	DRSC11410	1		inactive
yip7 (GeneID 38680)	DRSC25234	5		inactive
RpS17 (GeneID 39088)	DRSC11271			inactive
RpS17 (GeneID 39088)	DRSC29519	2		inactive
Rgk2 (GeneID 37132)	DRSC06503			inactive
Rgk2 (GeneID 37132)	DRSC21651	16		inactive
Rgk2 (GeneID 37132)	DRSC25737	12		inactive
Rgk2 (GeneID 37132)	DRSC29628	10		inactive
plum (GeneID 43197)	DRSC16054	5		inactive
bru3 (GeneID 39527)	DRSC09280	8		inactive
bru3 (GeneID 39527)	DRSC09687	6		inactive
bru3 (GeneID 39527)	DRSC09887	6		inactive
bru3 (GeneID 39527)	DRSC22732	5		inactive
bru3 (GeneID 39527)	DRSC28166	6		inactive
CG7742 (GeneID 33750)	DRSC03066	6		inactive
CG42741 (GeneID 37654)	DRSC04593	7		inactive
CG42741 (GeneID 37654)	DRSC22045	9		inactive
CG42741 (GeneID 37654)	DRSC30003	10		inactive
CG16863 (GeneID 34784)	DRSC01892	4		inactive
Ack-like (GeneID 36442)	DRSC07500	7		inactive
CG13032 (GeneID 39863)	DRSC09912	3		inactive
mex1 (GeneID 39677)	DRSC11368	10		inactive
Vha36-1 (GeneID 44702)	DRSC07098	4		inactive
Vha36-1 (GeneID 44702)	DRSC25624	6		inactive
Rift (GeneID 43756)	DRSC14330	9		inactive
